Measurements taken from PubChem BioAssay AID330 (DTP/NCI, 2004).
The list shows only some results of the screen, not a fair sample: it is rich in T/C values a quarter to a half above the control, in often repeated tests (any T/C) and in doses without a T/C. Other doses and runs of a compound stand elsewhere. T/C is the treated group as % of the vehicle group. Some entries give survivors of the animals treated and no T/C: the source holds a T/C of zero for them, seemingly a mark for toxic or unscored doses. Some survivor counts are full or nearly so, which does not show that the dose was tolerated: the source hardly ever lists a survival T/C far under the control, and the zero likely stands for such cases as well. Counts of survivors are from the toxicity check (mostly the fifth day) where no day follows; animals may have died later. Schedule codes are those of the source, read here as Q, the interval in days (D) or hours (H), X, the number of doses. Some entries hold several experiments; the results are listed from low to high. Where survival is the endpoint, the PubChem record calls one and a half times the control and up active, and a quarter to a half above the control has no call in these data; cut-offs in other NCI protocols can differ.

Tested on: P388 leukemia ip, CD2F1 mice, survival T/C
Assay: NCI In Vivo Anticancer Drug Screen. Data for tumor model P388 Leukemia (intraperitoneal) in CD2F1 (CDF1) mice
Conditions: T/C endpoint: median survival time, higher T/C = longer survival
[1] = dose: 240.0 mg/kg/injection, schedule: Q01DX005 (ip), vehicle: saline with Tween-80
[2] = dose: 50.0 mg/kg/injection, schedule: Q01DX005 (ip), vehicle: saline with Tween-80
[3] = dose: 100.0 mg/kg/injection, schedule: Q01DX005 (ip), vehicle: saline with Tween-80
[4] = dose: 200.0 mg/kg/injection, schedule: Q01DX005 (ip), vehicle: saline with Tween-80
[5] = dose: 100.0 mg/kg/injection, schedule: Q01DX009 (ip), vehicle: saline
[6] = dose: 200.0 mg/kg/injection, schedule: Q01DX009 (ip), vehicle: saline with Tween-80
[7] = dose: 1.0 mg/kg/injection, schedule: Q01DX009 (ip), vehicle: saline with Tween-80
[8] = dose: 400.0 mg/kg/injection, schedule: Q04DX002 (ip), vehicle: saline with Tween-80
[9] = dose: 50.0 mg/kg/injection, schedule: Q01DX009 (ip), vehicle: saline with Tween-80

## CC1(C)CN(c2ccccc2)N(CO)C1=O
dose: 25.0 mg/kg/injection, schedule: Q04DX003 (ip), vehicle: saline
  survivor count: 0 of 6 and 3 of 6
dose: 50.0 mg/kg/injection, schedule: Q04DX003 (ip), vehicle: saline
  survivor count: 0 of 6
dose: 100.0 mg/kg/injection, schedule: Q04DX003 (ip), vehicle: saline
  survivor count: 0 of 6

## COc1cc(OC)c(C(c2cc3c(cc2O)OCO3)N2CCOCC2)c(OC)c1 (stereo not drawn)
[1]
  survivor count: 6 of 6

## O=C(c1cc(Cl)c(Cl)c([N+](=O)[O-])c1Cl)C(Cl)Cl
dose: 100.0 mg/kg/injection, schedule: Q04DX003 (ip), vehicle: Klucel (hydroxypropylcellulose) (HPC)
  survivor count: 6 of 6
dose: 200.0 mg/kg/injection, schedule: Q04DX003 (ip), vehicle: Klucel (hydroxypropylcellulose) (HPC)
  survivor count: 4 of 6
dose: 400.0 mg/kg/injection, schedule: Q04DX003 (ip), vehicle: Klucel (hydroxypropylcellulose) (HPC)
  survivor count: 2 of 6

## COc1cc(O)c(C(C)c2ccccc2)cc1N=NC(N)=O (stereo not drawn)
[2]
  survivor count: 6 of 6
[3]
  survivor count: 6 of 6
[4]
  survivor count: 6 of 6

## COc1cc(CCN(C)C)c([N+](=O)[O-])cc1OC
dose: 50.0 mg/kg/injection, schedule: Q01DX009 (ip), vehicle: saline
  survivor count: 0 of 6
[5]
  survivor count: 0 of 6
dose: 200.0 mg/kg/injection, schedule: Q01DX009 (ip), vehicle: saline
  survivor count: 0 of 6

## COc1cc(/C=C(/NC(=O)c2ccccc2)C(O)=C(C#N)C#N)ccc1O
dose: 240.0 mg/kg/injection, schedule: Q01DX005 (ip), vehicle: saline
  survivor count: 6 of 6

## CCCCN1CCN(c2ccc([N+](=O)[O-])c3no[n+]([O-])c23)CC1
dose: 64.0 mg/kg/injection, schedule: Q04DX003 (ip), vehicle: suspension in saline
  T/C: 127 % of control

## CC(C)n1c2c(c3ccccc3c1=O)C(=O)c1ccccc1-2
[3]
  survivor count: 5 of 5
[4]
  survivor count: 5 of 5

## CC(C)(C)C1CCC2(CC1)OCC1CCCN12 (stereo not drawn)
[4]
  survivor count: 0 of 6

## OC1Cc2ccccc2CC1NC1CCCCC1 (stereo not drawn)
dose: 200.0 mg/kg/injection, schedule: Q01DX005 (ip), vehicle: saline
  survivor count: 0 of 6

## Nc1ccc2c(n1)NCC/C2=N\Nc1ccc(F)cc1
[6]
  survivor count: 3 of 6

## CCCCCCCCCCCCCCCC(=O)N(CCCCCCCCCN(CCCN(C)C)C(=O)CCCCCCCCCCCCCCC)CCCN(C)C
dose: 50.0 mg/kg/injection, schedule: Q01DX009 (ip), vehicle: water
  survivor count: 5 of 6
dose: 100.0 mg/kg/injection, schedule: Q01DX009 (ip), vehicle: water
  survivor count: 3 of 6
dose: 200.0 mg/kg/injection, schedule: Q01DX009 (ip), vehicle: water
  survivor count: 0 of 6
dose: 400.0 mg/kg/injection, schedule: Q01DX009 (ip), vehicle: water
  survivor count: 0 of 6

## N#CC(Br)CNC(=O)Oc1ccccc1 (stereo not drawn)
dose: 400.0 mg/kg/injection, schedule: Q01DX005 (ip), vehicle: Klucel (hydroxypropylcellulose) (HPC)
  survivor count: 0 of 6

## Cc1cc(NCCCCCCNc2cc(C)[n+](C)c3ccccc23)c2ccccc2[n+]1C
[2]
  survivor count: 0 of 5
[3]
  survivor count: 0 of 5
[4]
  survivor count: 0 of 5

## CCOc1cc(/C=N\Nc2nnc(C)n2N)c(C)cc1N(CCCl)CCCl
dose: 0.5 mg/kg/injection, schedule: Q01DX009 (ip), vehicle: saline with Tween-80
  T/C: 130 % of control
[7]
  T/C: 135 % of control
dose: 10.0 mg/kg/injection, schedule: Q04DX003 (ip), vehicle: saline
  T/C: 130 % of control

## CCC/C(=N\O)S(=O)(=O)c1ccc(NN=O)nc1
dose: 25.0 mg/kg/injection, schedule: Q01DX009 (ip), vehicle: saline
  T/C: 145 % of control

## O=C(Cl)CC1CC(=O)OC1=O (stereo not drawn)
[6]
  survivor count: 2 of 6

## NC(=O)/C=C/C(=O)NC(=O)Cc1ccccc1
dose: 12.0 mg/kg/injection, schedule: Q01DX009 (ip), vehicle: saline with Tween-80
  T/C: 126 % of control

## c1ccc2c(CCN3CCCCC3)c[nH]c2c1
dose: 120.0 mg/kg/injection, schedule: Q01DX005 (ip), vehicle: saline with Tween-80
  survivor count: 0 of 6
[1]
  survivor count: 0 of 6

## O=S(=O)(C(Br)S(=O)(=O)C(F)(F)C(F)(F)C(F)(F)C(F)(F)F)C(F)(F)C(F)(F)C(F)(F)C(F)(F)F
dose: 200.0 mg/kg/injection, schedule: Q01DX001 (ip), vehicle: saline
  survivor count: 4 of 6
dose: 400.0 mg/kg/injection, schedule: Q01DX001 (ip), vehicle: saline
  survivor count: 0 of 6

## CC(=O)OCC1(OC(=O)CC(C)C)COC(O)C2C(C=O)=CC=C21 (stereo not drawn)
dose: 25.0 mg/kg/injection, schedule: Q01DX005 (ip), vehicle: Klucel (hydroxypropylcellulose) (HPC)
  survivor count: 5 of 6
dose: 50.0 mg/kg/injection, schedule: Q01DX005 (ip), vehicle: Klucel (hydroxypropylcellulose) (HPC)
  survivor count: 0 of 6
dose: 100.0 mg/kg/injection, schedule: Q01DX005 (ip), vehicle: Klucel (hydroxypropylcellulose) (HPC)
  survivor count: 0 of 6

## CCOC(=O)C(NC(=O)C1(O)C(O)C2(CC)C=CCN3CCC4(c5cc(C6(C(=O)OC)CC7CN(CCc8c6[nH]c6ccccc86)CC(O)(CC)C7)c(OC)cc5N(C)C14)C32)C(C)CC (stereo not drawn)
dose: 1.0 mg/kg/injection, schedule: Q01DX001 (ip), vehicle: saline
  T/C: 140 % of control
dose: 2.0 mg/kg/injection, schedule: Q01DX001 (ip), vehicle: saline
  T/C: 136 % of control
dose: 4.0 mg/kg/injection, schedule: Q01DX001 (ip), vehicle: saline
  T/C: 147 % of control
dose: 16.0 mg/kg/injection, schedule: Q01DX001 (ip), vehicle: saline
  survivor count: 0 of 6
dose: 32.0 mg/kg/injection, schedule: Q01DX001 (ip), vehicle: saline
  survivor count: 0 of 6 and 2 of 6

## CCCCCCCCCCCCOC(=O)CN=C=O
[5]
  survivor count: 6 of 6

## COc1ccc(N2C(=O)C(=O)C(C(C)=O)C2=O)cc1 (stereo not drawn)
[8]
  survivor count: 3 of 6

## CC1CN1c1cc(O)c(N2CC2C)cc1O (stereo not drawn)
[7]
  T/C: 136 % of control
dose: 1.25 mg/kg/injection, schedule: Q04DX003 (ip), vehicle: saline with Tween-80
  T/C: 127 % of control
dose: 10.0 mg/kg/injection, schedule: Q04DX003 (ip), vehicle: saline with Tween-80
  survivor count: 6 of 6
dose: 15.0 mg/kg/injection, schedule: Q04DX003 (ip), vehicle: saline with Tween-80
  survivor count: 4 of 6

## CCOC(=O)C1CCCC1=O.CCOC(=O)C1CCCC1=O.[Cu] (stereo not drawn)
dose: 100.0 mg/kg/injection, schedule: Q04DX002 (ip), vehicle: saline with Tween-80
  survivor count: 0 of 6
dose: 200.0 mg/kg/injection, schedule: Q04DX002 (ip), vehicle: saline with Tween-80
  survivor count: 1 of 6
[8]
  survivor count: 0 of 6

## CC1CC[P+](Cc2ccccc2)(c2ccccc2)CC1 (stereo not drawn)
dose: 12.5 mg/kg/injection, schedule: Q04DX002 (ip), vehicle: saline
  survivor count: 2 of 6
dose: 25.0 mg/kg/injection, schedule: Q04DX002 (ip), vehicle: saline
  survivor count: 0 of 6
dose: 50.0 mg/kg/injection, schedule: Q04DX002 (ip), vehicle: saline
  survivor count: 0 of 6
dose: 100.0 mg/kg/injection, schedule: Q04DX002 (ip), vehicle: saline
  survivor count: 0 of 6
dose: 200.0 mg/kg/injection, schedule: Q04DX002 (ip), vehicle: saline
  survivor count: 0 of 6
dose: 400.0 mg/kg/injection, schedule: Q04DX002 (ip), vehicle: saline
  survivor count: 0 of 6

## O=C1NC(=O)N(c2ccc([N+](=O)[O-])cc2)C1=O
dose: 50.0 mg/kg/injection, schedule: Q01DX009 (ip), vehicle: Klucel (hydroxypropylcellulose) (HPC)
  survivor count: 6 of 6
dose: 100.0 mg/kg/injection, schedule: Q01DX009 (ip), vehicle: Klucel (hydroxypropylcellulose) (HPC)
  survivor count: 6 of 6

## CC1(C)C(/C=C\c2ccc(O)cc2)=Nc2ccccc21
[9]
  survivor count: 1 of 6
dose: 100.0 mg/kg/injection, schedule: Q01DX009 (ip), vehicle: saline with Tween-80
  survivor count: 0 of 6
[6]
  survivor count: 0 of 6

## CCOC(=O)/C=C/C(=O)NNS(=O)(=O)CC(N)C(=O)O (stereo not drawn)
dose: 400.0 mg/kg/injection, schedule: Q04DX003 (ip), vehicle: acid diluted with saline
  survivor count: 5 of 6

## C[n+]1cccc(SC2CCC3CC4CC3C2C4)c1 (stereo not drawn)
[9]
  survivor count: 5 of 6
